{"source": "PubChem BioAssay AID248", "about": "(DTP/NCI, 2004)", "system": "L1210 leukemia ip in BDF1 mice, survival T/C", "assay": "NCI In Vivo Anticancer Drug Screen. Data for tumor model L1210 Leukemia (intraperitoneal) in B6D2F1 (BDF1) mice", "settings": "T/C endpoint: mean survival time, higher T/C = longer survival", "key": {"[1]": {"settings": "dose: 100.0 mg/kg/injection, schedule: Q01DX009 (ip), vehicle: saline with Tween-80"}, "[2]": {"settings": "dose: 400.0 mg/kg/injection, schedule: Q04DX003 (ip), vehicle: saline with Tween-80"}, "[3]": {"settings": "dose: 100.0 mg/kg/injection, schedule: Q01DX009 (ip), vehicle: Klucel (hydroxypropylcellulose) (HPC)"}, "[4]": {"settings": "dose: 200.0 mg/kg/injection, schedule: Q01DX009 (ip), vehicle: Klucel (hydroxypropylcellulose) (HPC)"}, "[5]": {"settings": "dose: 400.0 mg/kg/injection, schedule: Q01DX009 (ip), vehicle: Klucel (hydroxypropylcellulose) (HPC)"}}, "note": "The list is a part of this screen's results and no random one: it gathers tests that were run many times, whatever their T/C, doses with no T/C, and many T/C values between a quarter and a half above the control. Other doses and runs of a compound stand elsewhere. T/C is the treated group as % of the vehicle group. Some doses have a count of surviving animals in place of a T/C: the source holds a T/C of zero for them, seemingly a mark for toxic or unscored doses. Some survivor counts are full or nearly so, which does not show that the dose was tolerated: the source hardly ever lists a survival T/C far under the control, and the zero likely stands for such cases as well. Survivors were counted at the toxicity check, usually on the fifth day, unless a day is given; later deaths do not show. Schedules are NCI's codes, taken here to give the interval after Q, in days (D) or hours (H), and the number of doses after X. Where survival is the endpoint, the PubChem record calls one and a half times the control and up active, and a quarter to a half above the control has no call in these data; cut-offs in other NCI protocols can differ. Some entries hold several experiments; the results are listed from low to high. Brackets with × count equal records among those shown."}
{"smiles": "Cc1ccc2c(C)c3ccc4ccccc4c3c[n+]2c1", "values": [{"measurement": "survivor count", "setting": "dose: 25.0 mg/kg/injection, schedule: Q01DX009 (ip), vehicle: saline with Tween-80", "value": "3 of 6"}, {"measurement": "survivor count", "setting": "dose: 50.0 mg/kg/injection, schedule: Q01DX009 (ip), vehicle: saline with Tween-80", "value": "3 of 6"}, {"measurement": "survivor count", "setting": "[1]", "value": "4 of 6"}, {"measurement": "survivor count", "setting": "dose: 100.0 mg/kg/injection, schedule: Q04DX003 (ip), vehicle: Klucel (hydroxypropylcellulose) (HPC)", "value": "3 of 6"}, {"measurement": "survivor count", "setting": "dose: 200.0 mg/kg/injection, schedule: Q04DX003 (ip), vehicle: Klucel (hydroxypropylcellulose) (HPC)", "value": "3 of 6"}, {"measurement": "survivor count", "setting": "dose: 400.0 mg/kg/injection, schedule: Q04DX003 (ip), vehicle: Klucel (hydroxypropylcellulose) (HPC)", "value": "6 of 6"}, {"measurement": "survivor count", "setting": "dose: 800.0 mg/kg/injection, schedule: Q04DX003 (ip), vehicle: Klucel (hydroxypropylcellulose) (HPC)", "value": "2 of 6"}]}
{"smiles": "CCOc1c(Cl)cc(Cl)cc1C(c1ccc(Cl)cc1S(=O)(=O)O)c1cc(Cl)cc(Cl)c1OCC", "values": [{"measurement": "survivor count", "setting": "dose: 200.0 mg/kg/injection, schedule: Q04DX003 (ip), vehicle: saline with Tween-80", "value": "4 of 6"}, {"measurement": "survivor count", "setting": "[2]", "value": "5 of 6"}]}
{"smiles": "CCCCOc1ccc(/C=N\\N=C\\c2ccc(OCCCC)cc2)cc1", "values": [{"measurement": "survivor count", "setting": "dose: 400.0 mg/kg/injection, schedule: Q01DX009 (ip), vehicle: saline with Tween-80", "value": "5 of 6"}]}
{"smiles": "O=C(/C=C/c1ccccc1)NC(=S)Nc1ccc(CCO)cc1", "values": [{"measurement": "T/C", "setting": "[1]", "value": "95, 96, 99 % of control"}, {"measurement": "survivor count", "setting": "[1]", "value": "6 of 6"}, {"measurement": "T/C", "setting": "dose: 200.0 mg/kg/injection, schedule: Q01DX009 (ip), vehicle: saline with Tween-80", "value": "93, 95 (2×), 99 % of control"}, {"measurement": "survivor count", "setting": "dose: 400.0 mg/kg/injection, schedule: Q04DX002 (ip), vehicle: saline with Tween-80", "value": "6 of 6"}]}
{"smiles": "CC(=O)c1cccc([N+](=O)[O-])c1", "values": [{"measurement": "survivor count", "setting": "dose: 400.0 mg/kg/injection, schedule: Q01DX009 (ip), vehicle: other", "value": "4 of 6"}]}
{"smiles": "O=C(C[n+]1ccc(-c2ccccc2)cc1)c1ccccc1", "values": [{"measurement": "survivor count", "setting": "dose: 400.0 mg/kg/injection, schedule: Q04DX003 (ip), vehicle: saline", "value": "1 of 6"}]}
{"smiles": "CC1=NCCN1CCNC(=O)c1ccc(C(=O)NCCN2CCN=C2C)cc1", "values": [{"measurement": "survivor count", "setting": "dose: 20.0 mg/kg/injection, schedule: Q01DX001 (ip), vehicle: saline", "value": "0 of 6"}, {"measurement": "survivor count", "setting": "dose: 40.0 mg/kg/injection, schedule: Q01DX001 (ip), vehicle: saline", "value": "0 of 6"}, {"measurement": "survivor count", "setting": "dose: 80.0 mg/kg/injection, schedule: Q01DX001 (ip), vehicle: saline", "value": "0 of 6"}, {"measurement": "survivor count", "setting": "dose: 100.0 mg/kg/injection, schedule: Q01DX001 (ip), vehicle: saline", "value": "0 of 6"}, {"measurement": "survivor count", "setting": "dose: 200.0 mg/kg/injection, schedule: Q01DX001 (ip), vehicle: saline", "value": "0 of 6"}, {"measurement": "survivor count", "setting": "dose: 400.0 mg/kg/injection, schedule: Q01DX001 (ip), vehicle: saline", "value": "0 of 6"}]}
{"smiles": "COC(=O)/C=C(\\C)C(C)=Nc1ccccc1", "values": [{"measurement": "survivor count", "setting": "[2]", "value": "1 of 6"}]}
{"smiles": "COC(=O)C1C2CC3c4[nH]c5cc(OC)ccc5c4CCN3CC2CC(O)C1OC", "note": "(centres undefined)", "values": [{"measurement": "survivor count", "setting": "dose: 200.0 mg/kg/injection, schedule: Q04DX002 (ip), vehicle: Klucel (hydroxypropylcellulose) (HPC)", "value": "1 of 3"}, {"measurement": "survivor count", "setting": "dose: 400.0 mg/kg/injection, schedule: Q04DX002 (ip), vehicle: Klucel (hydroxypropylcellulose) (HPC)", "value": "0 of 3"}]}
{"smiles": "O=C1c2cccc3cc([N+](=O)[O-])cc(c23)C(=O)N1CCCN(CCO)CCO", "values": [{"measurement": "survivor count", "setting": "[3]", "value": "3 of 6"}, {"measurement": "survivor count", "setting": "[4]", "value": "2 of 6"}, {"measurement": "survivor count", "setting": "[5]", "value": "0 of 6"}]}
{"smiles": "O=c1[nH]c2ccccc2c(C(Cl)(Cl)Cl)c1Cl", "values": [{"measurement": "survivor count", "setting": "[4]", "value": "3 of 3"}]}
{"smiles": "COc1ccc(NC(=S)NNC(=S)NNc2ccccc2)cc1", "values": [{"measurement": "survivor count", "setting": "[5]", "value": "5 of 6"}]}
{"smiles": "N#CC(C#N)N=Nc1ccc(S(=O)(=O)Nc2ccccn2)cc1", "values": [{"measurement": "survivor count", "setting": "dose: 300.0 mg/kg/injection, schedule: Q01DX001 (ip), vehicle: saline", "value": "1 of 6"}]}
{"smiles": "Cc1c(Cl)cccc1NC(=O)Nc1ccccc1F", "values": [{"measurement": "survivor count", "setting": "[3]", "value": "6 of 6"}, {"measurement": "survivor count", "setting": "[4]", "value": "6 of 6"}, {"measurement": "survivor count", "setting": "[5]", "value": "6 of 6"}]}
